Measured values as given in PubChem BioAssay AID2685 (National Center for Advancing Translational Sciences (NCATS), 2010).
The list shows a part of the results. Further columns of the screen follow, without active or inactive calls. The list favours compounds with an active or inconclusive main result. Words in brackets tell the shape of the fitted curve; partial curves, single points and poor fits give uncertain potencies.

Experiment: qHTS Assay for Lipid Storage Modulators in Drosophila S3 Cells;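 as to cell number change: cells counted by Cell Tracker Red CMTPX staining in the red channel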
Conditions: BODIPY lipid droplet fluorescence, 18-24 h; for cell number change: measured here: cell count max response, cells fed with added oleic acid
Outline: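 Drosophila S3 cells got compounds at several concentrations plus oleic acid (400 uM solution). Laser-scanning cytometry with 488 nm excitation read lipid droplets at 500-530 nm and cells at 575-640 nm. Percent activity was relative to 20 uM Triacsin C.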

[1] = measured here: cell number channel AC50, cells fed with added oleic acid
[2] = measured here: lipid fluorescence (Fed channel) AC50, cells fed with added oleic acid

Compound	cell number change [%]	AC50 [1]	AC50 [2]
COc1cccc(C2CC(c3cccc(OC)c3)n3nc(N)nc3N2)c1 (centres undefined)	50.2	8.2 µM [rising, partial curve]	
C=CCNC(=O)CSc1nnc(-c2ccccn2)n1Cc1ccccc1	0.75		0.0731 µM [falling, single point]
Cc1cc(C)cc(NC(=O)CSc2nc3[nH]c(=O)cc(O)c3s2)c1	23.5		0.58 µM [falling, single point]
Cc1ccc(-c2nn(-c3ccccc3)cc2/C=C/C(=O)Nc2cccc(S(N)(=O)=O)c2)cc1	-28.4		20.6 µM [falling, single point]
OC(CNCCCN1CCCCC1)COc1ccccc1 (centres undefined)	-0.356		32.6 µM [falling, single point]
NS(=O)(=O)c1ccc(CCNC(=O)CNC(=O)c2ccccc2F)cc1	-3.85		
CC1CCN(CCc2nc3cc(NC(=O)COc4ccc([N+](=O)[O-])cc4)ccc3n2C)CC1	26.9		29.1 µM [rising, single point]
Cc1occc1C(=O)NCc1ccc(C(=O)O)o1	-64.1	4.61 µM [falling, full curve]	
COc1cccc(Cn2c(=S)[nH]c3ccc(N4CCOCC4)cc3c2=O)c1		0.0731 µM [rising, full curve, poor fit]	0.146 µM [rising, full curve, poor fit]
O=c1c2ccccc2nc(-c2ccco2)n1/N=C/c1ccco1	4.46		1.84 µM [rising, single point]
Cc1ccc(NC(=O)c2ccc(-c3nn(C)c(=O)c4ccccc34)cc2)cc1	19.6		
CC(C)(C)OC(=O)NCCCCCNC(=O)c1[nH]cnc1C(=O)N[C@@H](Cc1ccccc1)C(=O)OCc1ccccc1	-11.5		0.184 µM [rising, full curve, poor fit]
CCC(C)NC(=O)CSc1nc2ccccc2c(=O)n1Cc1ccc(OC)cc1 (centres undefined)	118	18.4 µM [rising, single point]	23.1 µM [rising, single point]
O=C(COC(=O)CCc1nc2ccccc2n1-c1ccccc1)Nc1cccc(Cl)c1	33.3	20.6 µM [rising, single point]	16.4 µM [rising, partial curve]
COC(=O)c1ccc(COc2ccccc2[N+](=O)[O-])o1	-5.87		2.06 µM [rising, partial curve]
CC1=C(OC(=O)c2ccc(Br)cc2)C(C)(C)C(c2ccccc2)OC1=O (centres undefined)	9.04		
CCCNC(=S)Nc1ccc(Cl)cc1Cl	-11.1	0.103 µM [falling, full curve]	1.46 µM [falling, partial curve]

Some entries already given, limited to AC50 [1] and cell number change [%]:

| Compound | AC50 [1] | cell number change [%] |
| --- | --- | --- |
| Cc1ccc(NC(=O)c2ccc(-c3nn(C)c(=O)c4ccccc34)cc2)cc1 |  | 19.6 |
| CC(C)(C)OC(=O)NCCCCCNC(=O)c1[nH]cnc1C(=O)N[C@@H](Cc1ccccc1)C(=O)OCc1ccccc1 |  | -11.5 |
